Measured values: US11969464B2, “Amidated peptides and their deamidated counterparts displayed by HLA-A*02 for use in immunotherapy against different types of cancers” (Immatics Biotechnologies GmbH, priority 2020, dated 2024)

Test: Absolute quantitation of tumor associated peptides presented on the cell surface (nano LC-MS/MS)
Design: species or system human
Details: tumor samples
Description: The generation of binders, such as antibodies and/or TCRs, is a laborious process, which may be conducted only for a number of selected targets. In the case of tumor associated and specific peptides, selection criteria include, but are not restricted to, exclusiveness of presentation and the density of peptide presented on the cell surface. In addition to the isolation and relative quantitation of peptides as described in EXAMPLE 1, the inventors did analyze absolute peptide copies per cell as described in WO 2016/107740. The quantitation of TUMAP copies per cell in solid tumor samples requires the absolute quantitation of the isolated TUMAP, the efficiency of the TUMAP isolation process, and the cell count of the tissue sample analyzed.
For an accurate quantitation of peptides by mass spectrometry, a calibration curve was generated for each individual peptide using two different isotope labeled peptide variants (one or two isotope-labeled amino acids are included during TUMAP synthesis). […]
The calibration curves were prepared in at least three different matrices, i.e. HLA peptide eluates from natural samples similar to the routine MS samples, and each preparation was measured in duplicate MS runs. For evaluation, MS signals were normalized to the signal of the internal standard and a calibration curve was calculated by logistic regression. […]

Substance | COPIES PER CELL (MEDIAN)
2 (RLLEGDFSL; peptide displayed by HLA-A*02) [compound 2] | + (≥25 = +)
61 (FISDFTMTI; peptide displayed by HLA-A*02) [compound 61] | ++++ (≥100 = ++++)
